In publication PMC7819943, “Rice protein-binding microarrays: a tool to detect cis-acting elements near promoter regions in rice”:
This is one part of the list.

Amino acid sequences for entries named in this document (tags omitted).
UniProt Q0JBA9, entry or part of it: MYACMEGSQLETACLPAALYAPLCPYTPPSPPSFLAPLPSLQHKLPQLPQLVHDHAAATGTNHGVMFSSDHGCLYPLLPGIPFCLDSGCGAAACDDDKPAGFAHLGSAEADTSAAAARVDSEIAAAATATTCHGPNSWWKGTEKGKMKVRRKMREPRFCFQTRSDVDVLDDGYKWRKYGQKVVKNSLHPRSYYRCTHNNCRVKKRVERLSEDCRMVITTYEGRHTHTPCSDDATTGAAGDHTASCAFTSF

Biological target: OsWRKY34 (Oryza sativa, UniProt Q0JBA9 1-250)
Assay: protein-binding microarray (RPBM); PBS, 2% BSA, 51.3 ng/ul salmon testes DNA, 50 uM zinc acetate, 200 nM TF, 25 C, 1 h; high values mean tight binding
Conditions: protein: recombinant; tags: N-terminal polyhistidine and DsRed monomer fusion (pET32a); label: CyDye5-dUTP incorporated in the synthesized complementary strand; 3' TTTTT single-stranded linker to array surface; dsDNA, one strand shown
Outline: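 For the binding signal, per-feature fluorescence intensity was read in arbitrary units on an Axon 4000B scanner. Before scanning, a 2% BSA-blocked custom Agilent array made double-stranded with Cy5-dUTP was washed after 1 h at 25 °C with 200 nM protein and 50 µM zinc acetate. The proteins were Ni–NTA-purified transcription factors with N-terminal polyhistidine and DsRed fusions, expressed in E. coli BL21-CodonPlus.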

Row | Sequence | binding signal
1 | CACATCTTCTTGCTCCATCTCTGCTTACTCCACTCTTTCTCGGAGTCACCTAGTGCAG | 14300 fluorescence intensity (a.u.)
2 | CGCTCCACCACCCGCCCGCTCGCCCATTTCCTCTCCCTTTCGGAGTCACCTAGTGCAG | 12300 fluorescence intensity (a.u.)
3 | CCACGCGGCCGCGTCCAGGTCATCGTCGTCGCCTCGCCTCCGGAGTCACCTAGTGCAG | 8930 fluorescence intensity (a.u.)
4 | TGTCTAACATTTGATTATCCGTTTTATTTTAATCTTTTTACGGAGTCACCTAGTGCAG | 9000 fluorescence intensity (a.u.)
5 | TCACTGACATGTGGGTCCCATTTACATTTGTTTTTATTTTCGGAGTCACCTAGTGCAG | 9930 fluorescence intensity (a.u.)
6 | TTATACTCCCTCCGTTTCGAAATGTTTGACGCCGTTGACTCGGAGTCACCTAGTGCAG | 11400 fluorescence intensity (a.u.)
7 | ACCTGGCATTGTATCATGGTCGCTTCCTTTTCTGTTCTCACGGAGTCACCTAGTGCAG | 13400 fluorescence intensity (a.u.)
8 | TTCACTCCCGTCCCGGCCCTCTACTCCACTCCACCCACCGCGGAGTCACCTAGTGCAG | 10800 fluorescence intensity (a.u.)
9 | GAATTTTTCGGTCCCCAAACTTATCATGAGTGTCGTATATCGGAGTCACCTAGTGCAG | 9260 fluorescence intensity (a.u.)
10 | TATTTTCTGGATTCAATTGCCACGTAAGCGCCACATCATTCGGAGTCACCTAGTGCAG | 11900 fluorescence intensity (a.u.)
11 | CTTAATTTATGTCGTACTTTCTTGGGTTTCTATTTTTAAACGGAGTCACCTAGTGCAG | 12500 fluorescence intensity (a.u.)
12 | TACTGGTCGTCTGGTCTACTCCGTCTCTCCTCTTCTCTCCCGGAGTCACCTAGTGCAG | 12200 fluorescence intensity (a.u.)
13 | AATTGTGGCATGGCTCATGTTTGGGGTTATTTTTCAGATGCGGAGTCACCTAGTGCAG | 10200 fluorescence intensity (a.u.)
14 | ATTCCTGTGTTTTTCCTGCGGCCCAATCAAACAATCATTCCGGAGTCACCTAGTGCAG | 10300 fluorescence intensity (a.u.)
15 | TCACCCGTCCGCATCGTCGCCGGTCGCCGCCGGTCACCGCCGGAGTCACCTAGTGCAG | 8820 fluorescence intensity (a.u.)
16 | CTACGTCGCCCGTGTCTTGTGCTCTTCCTCTCTCGCGGACCGGAGTCACCTAGTGCAG | 8090 fluorescence intensity (a.u.)
17 | AGAATGCATCACTTTGCTTTTGGCCAAGGTCATTTGAGCTCGGAGTCACCTAGTGCAG | 10600 fluorescence intensity (a.u.)
18 | GCTGCTGAGCTCCGGCCGACCGAAGGTGCTCCATTCTCTCCGGAGTCACCTAGTGCAG | 9470 fluorescence intensity (a.u.)
19 | GGGTGGTGATTTTTTAATGGGCGGTGATATTTTTAAGTGTCGGAGTCACCTAGTGCAG | 9840 fluorescence intensity (a.u.)
20 | GGTTTGTTCATTACTCTGCCTACATTTTGTTTAAAGGGAACGGAGTCACCTAGTGCAG | 11200 fluorescence intensity (a.u.)
21 | GGTTTTGGAGAGCGGTTTCACTGACGTGGCAGTGTTGACCCGGAGTCACCTAGTGCAG | 8090 fluorescence intensity (a.u.)

An excerpt of these results, as a markdown table:

| Row | Sequence | binding signal |
| --- | --- | --- |
| 7 | ACCTGGCATTGTATCATGGTCGCTTCCTTTTCTGTTCTCACGGAGTCACCTAGTGCAG | 13400 fluorescence intensity (a.u.) |
| 8 | TTCACTCCCGTCCCGGCCCTCTACTCCACTCCACCCACCGCGGAGTCACCTAGTGCAG | 10800 fluorescence intensity (a.u.) |
| 9 | GAATTTTTCGGTCCCCAAACTTATCATGAGTGTCGTATATCGGAGTCACCTAGTGCAG | 9260 fluorescence intensity (a.u.) |
| 10 | TATTTTCTGGATTCAATTGCCACGTAAGCGCCACATCATTCGGAGTCACCTAGTGCAG | 11900 fluorescence intensity (a.u.) |
| 11 | CTTAATTTATGTCGTACTTTCTTGGGTTTCTATTTTTAAACGGAGTCACCTAGTGCAG | 12500 fluorescence intensity (a.u.) |
| 12 | TACTGGTCGTCTGGTCTACTCCGTCTCTCCTCTTCTCTCCCGGAGTCACCTAGTGCAG | 12200 fluorescence intensity (a.u.) |
| 13 | AATTGTGGCATGGCTCATGTTTGGGGTTATTTTTCAGATGCGGAGTCACCTAGTGCAG | 10200 fluorescence intensity (a.u.) |
| 14 | ATTCCTGTGTTTTTCCTGCGGCCCAATCAAACAATCATTCCGGAGTCACCTAGTGCAG | 10300 fluorescence intensity (a.u.) |
| 15 | TCACCCGTCCGCATCGTCGCCGGTCGCCGCCGGTCACCGCCGGAGTCACCTAGTGCAG | 8820 fluorescence intensity (a.u.) |
| 16 | CTACGTCGCCCGTGTCTTGTGCTCTTCCTCTCTCGCGGACCGGAGTCACCTAGTGCAG | 8090 fluorescence intensity (a.u.) |
| 17 | AGAATGCATCACTTTGCTTTTGGCCAAGGTCATTTGAGCTCGGAGTCACCTAGTGCAG | 10600 fluorescence intensity (a.u.) |
| 18 | GCTGCTGAGCTCCGGCCGACCGAAGGTGCTCCATTCTCTCCGGAGTCACCTAGTGCAG | 9470 fluorescence intensity (a.u.) |
| 19 | GGGTGGTGATTTTTTAATGGGCGGTGATATTTTTAAGTGTCGGAGTCACCTAGTGCAG | 9840 fluorescence intensity (a.u.) |

The results go on:

Row | Sequence | binding signal
22 | TCATATTCCTACCCCATTTACTCCACAGTTTTATCTTATCCGGAGTCACCTAGTGCAG | 8260 fluorescence intensity (a.u.)
23 | CGCCTCGTCCTCTCCTTATCTCCTGTCTTTCGTGGCATCTCGGAGTCACCTAGTGCAG | 8910 fluorescence intensity (a.u.)
24 | GGCGGCCGGGGCTTGTGTCGATCTGTTGGAGGAATTGTCTCGGAGTCACCTAGTGCAG | 14100 fluorescence intensity (a.u.)
25 | CGGATGCCGTCCCTGCCGCCGGCCCACGTCGAGCTCATCCCGGAGTCACCTAGTGCAG | 8260 fluorescence intensity (a.u.)
26 | GATCTTGTCGTTGTTGTCGATGGAGGATAGCGGGAGGGAGCGGAGTCACCTAGTGCAG | 9530 fluorescence intensity (a.u.)
27 | AGCCTACCAGCTGCACCGCAAATGCCGTGTACTGCTTTCTCGGAGTCACCTAGTGCAG | 8340 fluorescence intensity (a.u.)
28 | AACACGTCTCCTATTTAGATTCGTAATATTATGATGCATTCGGAGTCACCTAGTGCAG | 8370 fluorescence intensity (a.u.)
29 | ATTTGTGATATGCCACCCTGACCCACATGTCATTGACTCACGGAGTCACCTAGTGCAG | 9320 fluorescence intensity (a.u.)
30 | GGGACAACGGGTGAACTTATTCCACATCCAATTAACAGCGCGGAGTCACCTAGTGCAG | 8070 fluorescence intensity (a.u.)
31 | TCCATCACATCGTTCCAATTTCAACCAAACTTTCAATTTTCGGAGTCACCTAGTGCAG | 9230 fluorescence intensity (a.u.)
32 | TTGTATGATGGCCTTAAGGATGTTCTTCTTGCGCTGCTAACGGAGTCACCTAGTGCAG | 9820 fluorescence intensity (a.u.)
33 | CACTACATAAACGCTCCCACCACCACACACCATTATTACTCGGAGTCACCTAGTGCAG | 10100 fluorescence intensity (a.u.)
34 | GCTTACTTGCAGCTAATCTGCCTCGCATCAGCGCACACGACGGAGTCACCTAGTGCAG | 8500 fluorescence intensity (a.u.)
35 | CACCCCACACCGCCCCGCCGCCTCCACTTCTCCCGGCGGTCGGAGTCACCTAGTGCAG | 8600 fluorescence intensity (a.u.)
36 | GGCTTTGTAAGTCTTTGTTCACATTATTTGCTGGGTCTAACGGAGTCACCTAGTGCAG | 8800 fluorescence intensity (a.u.)
37 | CCCTTTAATTTTCCTTTTTCATATTTTTTTTTCACATTTTCGGAGTCACCTAGTGCAG | 9000 fluorescence intensity (a.u.)
38 | TTCCCTACACCACACACCAACACACACAAACCATTGCAACCGGAGTCACCTAGTGCAG | 9810 fluorescence intensity (a.u.)
39 | ATCAGATGGATCTGCTCCCTTTTTTTATGTAATTGTTTGTCGGAGTCACCTAGTGCAG | 8200 fluorescence intensity (a.u.)
40 | CTTGTTCCGTTTTCGCAATGTGTTCGCTATAAATATCATACGGAGTCACCTAGTGCAG | 9270 fluorescence intensity (a.u.)
41 | ATACATGCCGTCGAATAATTATCTGAATCGTCCATTATCCCGGAGTCACCTAGTGCAG | 9300 fluorescence intensity (a.u.)
42 | CCTCCTCCAGCGCCCGCTCTTCTCGTCCCTCGCCGGCGGCCGGAGTCACCTAGTGCAG | 8160 fluorescence intensity (a.u.)
